Source: PubChem BioAssay AID1498 (National Center for Advancing Translational Sciences (NCATS), 2009)
This is one part of the list. These are further read-outs of the screen, such as a control signal, another cell line or another target. No call is given for them. Compounds called inactive in the main read-out are mostly missing here. Words in brackets tell the shape of the fitted curve; partial curves, single points and poor fits give uncertain potencies.

Assay: Confirmation Concentration-Response Assay for Modulators of Lamin A Splicing
Settings: HeLa lamin A splicing GFP/RFP minigene, Acumen, 48 h; for ratio activity: GFP/RFP ratio at top concentration; for ratio activity / RFP activity: at 46.1 µM; for RFP activity: RFP channel at top concentration
Procedure, shortened: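 Splicing correction read as ratio of GFP (500-530 nm) to DsRed2 (575-640 nm) object intensity by Acumen cytometry, after 48 h compound treatment of stable HeLa reporter cells (600/well) in 2% FBS medium.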

[1] = measured here: GFP/RFP ratio splicing readout
[2] = measured here: RFP viability/nonspecific counter channel

| Compound | ratio activity [%] | RFP activity [%] | AC50 [1] | AC50 [2] |
| --- | --- | --- | --- | --- |
| CC(C)(C)c1nc(SCC(=O)Nc2nc3c(s2)CCCC3)c2ccccc2n1 | -19.7 | -53.3 | 1.41 µM [falling, full curve] | 2.24 µM [rising, full curve, poor fit] |
| COc1ccc(NC(=O)/C(Cl)=C(/Cl)S(=O)(=O)Cc2ccccc2)cn1 | 100 | -96.7 | 100 µM [falling, partial curve, poor fit] | 3.16 µM [falling, full curve, poor fit] |
| COc1ccccc1-c1nnc2sc(-c3ccc(N(C)C)cc3)nn12 | -23 | -69.5 | 0.178 µM [falling, full curve, poor fit] | 3.16 µM [falling, full curve, poor fit] |
| CC1CCC(NC(=O)c2ccc(/C=C3\Oc4ccccc4N(C)C3=O)cc2)CC1 (centres undefined) | 51.8 | -99.1 | 25.1 µM [rising, partial curve, poor fit] | 7.94 µM [falling, full curve, poor fit] |
| O=S(=O)(CC(CN1CCCC1)N1CCCC1)c1ccc2ccccc2c1 (centres undefined) | -39 | -32.4 | 1.12 µM [falling, full curve, poor fit] | 7.08 µM [falling, full curve, poor fit] |
| CCOc1ccccc1CNc1ncnc2ccc(-c3c(C)noc3C)cc12 | -26.7 | -39.2 | 3.55 µM [falling, full curve, poor fit] | 35.5 µM [falling, single point] |
| Cc1ccc(NS(=O)(=O)c2cc([N+](=O)[O-])ccc2NNC(=S)Nc2cccc(Cl)c2)c(C)c1 | -41.1 | -3.54 | 3.98 µM [falling, full curve, poor fit] | 7.94 µM [rising, full curve, poor fit] |
| COc1ccc(CNc2ncnc3ccc(-c4c(C)noc4C)cc23)cc1 | -49.7 | 29.2 | 2.51 µM [falling, full curve] | 14.1 µM [rising, full curve, poor fit] |
| N=c1ccn2c(n1)O[C@@H]1[C@@H](O)[C@H](CO)O[C@H]12 | -36.6 | 41.7 | 0.0316 µM [falling, full curve] | 0.398 µM [rising, full curve, poor fit] |
| Cc1noc(C)c1-c1ccc2ncnc(NCc3ccc4c(c3)OCO4)c2c1 | -31.9 | 8.77 | 8.91 µM [falling, partial curve, poor fit] | 4.47 µM [falling, partial curve, poor fit] |
| CSc1ccc(CNc2ncnc3ccc(-c4c(C)noc4C)cc23)cc1 | -26.1 | -34.2 | 12.6 µM [falling, single point] | 3.55 µM [falling, full curve, poor fit] |
| COc1ccc(OC)c(NC(=O)C2CCC(CNc3c(N4CCC(C)CC4)c(=O)c3=O)CC2)c1 (centres undefined) | -34.3 | -18.2 | 14.1 µM [falling, full curve, poor fit] | 3.16 µM [falling, full curve, poor fit] |
| CN(C)CC(C(=O)c1ccccc1)c1ccccc1 (centres undefined) | -12.8 | -90.6 | 0.501 µM [falling, full curve, poor fit] | 7.94 µM [falling, full curve, poor fit] |
| CC1=CC(C)(C)N(S(=O)(=O)c2ccc(C)cc2)c2ccccc21 | -17.4 | -64.2 | 5.62 µM [falling, full curve, poor fit] | 8.91 µM [falling, full curve, poor fit] |
| Cc1noc(C)c1-c1ccc2ncnc(NCc3cccc(C(F)(F)F)c3)c2c1 | 2.28 | -94.7 | 2.82 µM [falling, full curve, poor fit] | 15.8 µM [falling, full curve, poor fit] |
| COC(=O)Nc1nc(-c2ccccc2)c(C(=O)c2ccc(Cl)cc2)s1 | -26.7 | -33.3 | 0.251 µM [falling, full curve, poor fit] | 6.31 µM [falling, full curve, poor fit] |

Some entries already given, limited to AC50 [2].
Compound | AC50 [2]
CC1CCC(NC(=O)c2ccc(/C=C3\Oc4ccccc4N(C)C3=O)cc2)CC1 (centres undefined) | 7.94 µM [falling, full curve, poor fit]
COc1ccc(OC)c(NC(=O)C2CCC(CNc3c(N4CCC(C)CC4)c(=O)c3=O)CC2)c1 (centres undefined) | 3.16 µM [falling, full curve, poor fit]
